{"source": "patent US20250367288A1", "about": "“DELIVERY OF MULTI-CYTOKINE SIGNALS BY OVEREXPRESSION OF WILD-TYPE OR MUTANT SIGNAL TRANSDUCTION MOLECULES” (THE TRUSTEES OF THE UNIVERSITY OF PENNSYLVANIA, priority 2021, published 2025)", "type_in_all_cases": "cell-based, human", "conditions_in_all_cases": "0.1 μg/ml", "key": {"T cells expressing TPOR": {"system": "T cells expressing TPOR", "assay": "Stimulation of T cells expressing TPOR for 7 days; cell number and percent transgenic cells by flow cytometry", "experimental": "(§1) FIG. 12: T cells transduced to express (i) the thrombopoietin receptor (TPOR) or (ii) the GCF receptor with a deletion at aa 715 (GCSFRd715) are active and can drive T cell proliferation via the non-canonical JAK2 pathway. T cells expressing GCSFRd715, TPOR, or the truncated NGFR as a control were stimulated for 7 days with IL-2/IL-7/IL-15 (all at 5 ng/ml; denoted as CK; positive control condition), 0.1 μg/ml recombinant thrombopoietin (TPO), 0.1 μg/ml TPO agonist eltrombopag (EP), or 0.1 μg/ml GCSF. Cell number (top) or percent transgenic cells (bottom) were quantified using flow cytometry at 7 days.\nFIG. 13: Exemplary flow cytometry plots showing that exposure of transgenic cytokine receptor transduced cells to the cognate cytokine (i.e. GCSFRd715 to GCSF; TPOR to TPO or EP) leads to enrichment of CAR expressing cells at 7 days. Addition of GCSF enriched the GCSRFd715 transgenic cell fraction from 15.6% to 64.9% (top panel). Addition of TPO enriched the TPOR fraction from 12.9% to 82% and addition of EP enriched the TPOR fraction from 12.9% to 55.9% (bottom panel).\nHealthy donor T cells were transduced to express (i) the thrombopoietin receptor (TPOR) or (ii) the GCF receptor with a deletion at aa 715 (GCSFRd715). […] Cell number (FIG. 12, top) or percent transgenic cells (FIG. 12, bottom) were quantified using flow cytometry at 7 days."}, "[1]": {"system": "T cells expressing the truncated NGFR", "assay": "Stimulation of negative control T cells expressing truncated NGFR for 7 days; flow cytometry", "experimental": "as §1\nHealthy donor T cells were transduced to express (i) the thrombopoietin receptor (TPOR) or (ii) the GCF receptor with a deletion at aa 715 (GCSFRd715). T cells expressing GCSFRd715, TPOR, or the truncated NGFR as a control were stimulated for 7 days with IL-2/IL-7/IL-15 (all at 5 ng/ml; denoted as CK; positive control condition), 0.1 μg/ml recombinant thrombopoietin (TPO), 0.1 μg/ml TPO agonist eltrombopag (EP), or 0.1 μg/ml GCSF. Cell number (FIG. 12, top) or percent transgenic cells (FIG. 12, bottom) were quantified using flow cytometry at 7 days."}, "TPOR": {"system": "TPOR", "assay": "Phosphorylation of STAT3 and STAT5 in TPOR expressing T cells after 24 hours stimulation, flow cytometry", "experimental": "(§2) FIG. 14: TPOR stimulation leads to activation of STAT3 and STAT5. Healthy donor T cells expressing TPOR or untransduced control T cells were stimulated for 24 hours with 5 ng/ml IL-2/IL-7/IL-15 (CK), 0.1 μg/ml TPO or 0.1 μg/ml Eltrombopag (EP). Following stimulation cells were fixed and the phosphorylation of STAT3 and STAT5 quantified using flow cytometry.\nas §2, with “TPOR” for “FIG. 14: TPOR”, “stimulation led” for “stimulation leads”, “and STAT5 (FIG. 14).” for “and STAT5.”, “μg/ml TPO,” for “μg/ml TPO”"}}, "note": "At least one structure is not confirmed: it was looked up by name or label, or the drawing left a doubt."}
{"smiles": "CC1=NN(c2ccc(C)c(C)c2)C(=O)/C1=N\\Nc1cccc(-c2cccc(C(=O)O)c2)c1O", "note": "[EP, eltrombopag, reference compound]", "values": [{"measurement": "Response of TPOR cells to stimulation (cell number)", "setting": "T cells expressing TPOR", "value": "responded"}, {"measurement": "Response of negative control cells (NGFR) to stimulation", "setting": "[1]", "value": "did not respond"}, {"measurement": "STAT5 and STAT3 phosphorylation in TPOR expressing T cells", "setting": "TPOR", "value": "leads to STAT5 and STAT3 phosphorylation"}]}
